B1: FGF-23(176-251): synthetic FGF-23 fragment, residues 176-251, SEQ ID NO: 2 (peptide, listed as Homo sapiens)
chain: RHTRSAEDDSERDPLNVLKPRARMTPAPASCSQELPSAEDNSPMASDPLGVVRGGRVNTHAGGTGPEGCRPFAKFI
B2: FGF-23(180-251): synthetic FGF-23 fragment, residues 180-251, SEQ ID NO: 3 (peptide, listed as Homo sapiens)
chain: SAEDDSERDPLNVLKPRARMTPAPASCSQELPSAEDNSPMASDPLGVVRGGRVNTHAGGTGPEGCRPFAKFI
B3: FGF-23(184-251): synthetic FGF-23 fragment, residues 184-251, SEQ ID NO: 4 (peptide, listed as Homo sapiens)
chain: DSERDPLNVLKPRARMTPAPASCSQELPSAEDNSPMASDPLGVVRGGRVNTHAGGTGPEGCRPFAKFI
B4: FGF-23(25-251): full-length recombinant human FGF-23(25-251) polypeptide expressed in E. coli, SEQ ID NO: 1 (protein, listed as Homo sapiens)
chain: YPNASPLLGSSWGGLIHLYTATARNSYHLQIHKNGHVDGAPHQTIYSALMIRSEDAGFVVITGVMSRRYLCMDFRGNIFGSHYFDPENCRFQHQTLENGYDVYHSPQYHFLVSLGRAKRAFLPGMNPPPYSQFLSRRNEIPLIHFNTPIPRRHTRSAEDDSERDPLNVLKPRARMTPAPASCSQELPSAEDNSPMASDPLGVVRGGRVNTHAGGTGPEGCRPFAKFI

Each molecule was assayed on normal rats (assay: Acute intravenous infusion of equimolar FGF-23 polypeptides in anesthetized rats, renal clearance). Settings: E = experimental clearance, i.v. infusion 1.24 nmol/kg/hour; mean ± SE.
Type: in vivo, rat
Method: Male Sprague Dawley rats weighing 300 g were purchased from Harlan Sprague Dawley Inc. (Madison Wis.). They were fed a standard rodent diet containing 0.7% phosphate and 0.5% calcium. All animals were fasted overnight prior to the experiment. On the day of the experiment, rats were anesthetized with an intraperitoneal injection of 100-150 mg/kg body weight of 5-sec-butyl-ethyl-2-thiobarbituricacid (Inactin, Byk Gulden Konstanz, Hamburg, Germany). The rats were placed on a heated table to maintain body temperature between 36-38° C. After a tracheostomy, a PE 50 catheter was placed in the left carotid artery to monitor mean arterial blood pressure (MAP) and to collect blood samples. Catheters were also placed in the left and right jugular veins for infusions. A solution containing 2% inulin in 0.9% NaCl plus 4.5% BSA was infused at a rate of 1.2 mL/hour in one catheter, and 0.9% NaCl was infused in the other catheter at a rate of 1.2 mL/hour. A catheter (PE 90) was placed in the bladder for urine collection. Acute infusion studies were performed using the following seven different groups of animals.
Group 1: Vehicle Time control (n=8). After a ninety-minute recovery period, one […] urine sample was taken (C1) and a blood sample was taken. One hour later a second 60-minute clearance was taken (C2).
Group 2: Effect of acute infusion of full length FGF-23 polypeptide (1.24 nmol/kg/hour, n=8). This protocol is identical to group 1 except that after the control collections, full-length recombinant FGF-23 polypeptide was added to the 0.9% saline infusion to deliver 1.24 nmol/kg/hour of full length FGF-23 polypeptide. After one hour of infusion, a sixty-minute clearance was taken.
Group 3: Effect of acute infusion of FGF-23(176-251) polypeptide (1.24 nmol/kg/hour, n=8). This protocol is identical to group 2 except for the sequence of the infused polypeptide.
Group 4: Effect of acute infusion of FGF-23(180-251) polypeptide (1.24 nmol/kg/hour, n=8). This protocol is identical to group 2 except for the sequence of the infused polypeptide.
Group 5: Effect of infusion of FGF-23(184-251) polypeptide (1.24 nmol/kg/hour, n=8). This protocol is identical to group 2 except for the sequence of the infused polypeptide.
Group 6: Effect of infusion of FGF-23(206-251) polypeptide (1.24 nmol/kg/hour, n=6). This protocol is identical to group 2 except for the sequence of the infused polypeptide.
Group 7: Effect of infusion of FGF-23(180-205) polypeptide (1.24 nmol/kg/hour, n=6). This protocol is identical to group 2 except for the sequence of the infused polypeptide.
Plasma and urine phosphate concentrations were determined using the method of Chen (Chen et al., Anal Chem., 28:1756-1758 (1956)). Inulin concentrations in plasma and urine were determined using the anthrone method (Führ et al., Klin. Wochenschr., 33.:729-730 (1955)). Sodium concentrations in urine were determined by ion selective electrode (EasyLyte Plus Analyzer, Medica Corp., Bedford, Mass.). Calcium concentrations were measured using atomic absorption spectrometry (Kumar et al., Biochemistry, 15:2420-2423 (1976)) with a Perkin Elmer Model 3300 Atomic Absorption Spectrometer (Perkin Elmer, Boston, Mass.). Serum 1α,25(OH)2D concentrations were measured using an RIA kit (Diasorin, Stillwater, Minn.).
Statistically significant differences between groups were evaluated by Student's t-test for comparison between two groups or by one-way analysis of variance (ANOVA) followed by Tukey's test for multiple comparisons. All values were expressed as mean±SE. A p value less than 0.05 was considered to be statistically significant.

**Q.** For “FGF-23(180-205): synthetic FGF-23 fragment, residues 180-205, SAEDDSERDPLNVLKPRARMTPAPAS, SEQ ID NO: 6 (listed as Homo sapiens)”, which “GFR (glomerular filtration rate), experimental clearance” value (from here on “GFR (glomerular filtration rate)”) is on record?
**A.** 4.5 ± 0.3 mL/min

**Q.** For “FGF-23(206-251): synthetic FGF-23 fragment, residues 206-251, SEQ ID NO: 5 (CSQELPSAEDNSPMASDPLGVVRGGRVNTHAGGTGPEGCRPFAKFI; listed as Homo sapiens)”, which “GFR (glomerular filtration rate)” value is on record?
**A.** 3.1 ± 0.2 mL/min

**Q.** B1 was tested. Which “GFR (glomerular filtration rate)” value did it give?
**A.** 3.1 ± 0.4 mL/min

**Q.** For B2, which “GFR (glomerular filtration rate)” value is on record?
**A.** 4.2 ± 0.4 mL/min

**Q.** How did the “GFR (glomerular filtration rate)” value turn out when B3 was run?
**A.** 4.3 ± 0.3 mL/min

**Q.** For B4, which “GFR (glomerular filtration rate)” value is on record?
**A.** 3.3 ± 0.5 mL/min

Source: patent publication US20100062984A1, “FGF-23 POLYPEPTIDES” (priority 2007, published 2010)
